Experimental data as given in US20260242362A1, “PREPARATION OF 3,4,5-TRISUBSTITUTED TRIAZOLES AND METHODS OF USING THE SAME” (University of Florida Research Foundation, Incorporated, priority 2023, published 2026).
For at least one compound, name, drawing or mass did not settle the structure.

Amino acid sequences for entries named in this document (tags omitted). A change or cut given only in a name is not applied to a line headed by its entry.
UniProt P41145: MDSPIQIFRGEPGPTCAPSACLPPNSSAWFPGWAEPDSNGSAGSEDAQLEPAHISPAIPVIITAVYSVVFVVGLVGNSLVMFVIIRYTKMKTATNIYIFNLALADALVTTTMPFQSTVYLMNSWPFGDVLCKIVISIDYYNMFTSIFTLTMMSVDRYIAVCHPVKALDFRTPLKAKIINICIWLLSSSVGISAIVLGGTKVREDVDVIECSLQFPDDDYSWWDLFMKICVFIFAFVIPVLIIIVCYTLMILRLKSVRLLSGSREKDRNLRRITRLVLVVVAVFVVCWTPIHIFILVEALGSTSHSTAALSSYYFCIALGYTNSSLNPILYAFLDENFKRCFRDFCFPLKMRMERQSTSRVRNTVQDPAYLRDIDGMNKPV

Tests used:
kappa opioid receptor [1] = target: T1, kappa opioid receptor (Homo sapiens, UniProt P41145); assay: Bias analysis by operational model, G protein vs βarrestin2, U69,593 as reference agonist; conditions: U69,593 reference agonist; global parameter fitting
kappa opioid receptor [2] = target: T1, kappa opioid receptor; assay: GTPγS binding assay (G-protein activation); type: biochemical

Compound	Bias (bias factor 10^ΔΔ(logτ/KA) Gprotein-Barr2) (kappa opioid receptor [1])	KOR potency / activity in words (SAR commentary) (kappa opioid receptor [2])
Cc1ccc(CCc2nnc(-c3ccccn3)n2Cc2ccccn2)cc1C(F)(F)F [Compound 10]	7	tolerated
Cc1ccc(CCc2nnc(-c3ccccn3)n2Cc2ccncc2)cc1C(F)(F)F [Compound 12]	–	tolerated
Cc1ccc(CCc2nnc(-c3cccnc3)n2Cc2cccs2)cc1C(F)(F)F [Compound 15]	–	good activity
